# Assay results reported in PMC7862700.
# The entries are a selection whose mix differs from that of the whole data set. At the low end of the ranking the order means little.
# Molecular target: T1, FEV (UniProt Q99581)
# T1 sequence: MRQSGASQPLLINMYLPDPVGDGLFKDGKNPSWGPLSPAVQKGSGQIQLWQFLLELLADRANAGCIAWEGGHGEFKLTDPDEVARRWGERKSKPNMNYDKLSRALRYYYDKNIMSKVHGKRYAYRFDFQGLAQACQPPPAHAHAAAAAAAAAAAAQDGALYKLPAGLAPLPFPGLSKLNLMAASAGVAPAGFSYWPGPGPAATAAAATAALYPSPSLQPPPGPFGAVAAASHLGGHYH
# Assay: DAPPL (digital affinity profiling via proximity ligation, sequencing)
# Conditions: 10 mM Tris-HCl pH 7.5, 50 mM NaCl, 1 mM DTT, 4% glycerol, room temperature, 30 min; GST-TFs on glutathione beads, 16-mer random dsDNA library, 0.1% …; high values mean tight binding; double strand, one strand shown; scale: fold enrichment (6-mer frequency, TF over GST control)
row,Sequence,binding signal
1,GCCTCG,1.25
2,ATCAGC,0.937
3,TTCACT,1.4
4,TTTTGC,1.3
5,TTCGTT,1.3
6,CCTACA,1.18
7,AATTCC,2.05
8,CTCAAA,1.28
9,TAGTCT,0.983

# Molecular target: T2, ELF5 (UniProt Q9UKW6-2)
# T2 sequence: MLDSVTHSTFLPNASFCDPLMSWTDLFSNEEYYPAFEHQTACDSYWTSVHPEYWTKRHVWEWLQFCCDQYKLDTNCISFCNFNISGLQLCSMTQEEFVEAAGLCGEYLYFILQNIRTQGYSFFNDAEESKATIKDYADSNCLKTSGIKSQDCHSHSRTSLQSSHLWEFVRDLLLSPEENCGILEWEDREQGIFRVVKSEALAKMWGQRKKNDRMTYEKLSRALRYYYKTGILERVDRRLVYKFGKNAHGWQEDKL
# Assay: as above
# Conditions: 10 mM Tris-HCl pH 7.5, 50 mM NaCl, 1 mM DTT, 4% glycerol, room temperature, 30 min; GST-TFs on glutathione beads, 16-mer random dsDNA library, 0.1% …; high values mean tight binding; double strand, one strand shown; scale: fold enrichment (6-mer frequency, TF over GST control)
row,Sequence,binding signal
1,ACCATA,1.15
2,CGATTG,1.11
3,CTTGAT,1.39
4,TCGCTC,1.25
5,GCCTCG,1.23
6,AAGCGA,1.07
7,AACCTC,1.17
8,CCGCTA,1.41
9,ATGGGT,1.34
10,ACTCTT,1.34
11,TCTTGA,1.3
12,CCTCTA,1.48
13,ATCAGC,0.876
14,CTAAAA,1.11
15,TTCACT,1.32
16,TAGTCC,1.06
17,CATACT,1.27
18,TTGCAC,1.22
19,GATTTT,1.13
20,AAACCC,1.31

row,Sequence,binding signal
1,CAGCTT,1.11
2,TTTTGC,1.27
3,TACGTT,1.27
4,TCTGCC,1.31
5,TATGAA,1.07
6,CGCCTC,1.43
7,ATTTCC,6.17
8,CGACTT,1.72
9,TAACAC,1.2
10,TTCGTT,1.32
11,CCTACA,1.41
12,AATTCC,2.39
13,GAATTT,1.3
14,CTCAAA,1.16
15,GAAATC,1.58
16,CCCACG,1.15
17,TAGTCT,1.04
18,CTGTTA,1.37
19,GAAATA,1.73
